Measurements published in patent publication US20210261642A1, “SOLUBILITY OF GLP-1 PEPTIDE” (Novo Nordisk A/S, priority 2017, published 2021).
This continues a long series; more values of the same kind are listed elsewhere.

Assay: Assay (I): Determination of Solubility (96-well plate, pH 3.0-11.0, organic solvent 0-70% w/w, UV absorption at 280 nm)
Format: physicochemical
Conditions: MeCN 70.0% w/w; for GLP-1 peptide concentration: Method 2 (precipitation), 5° C.
Method: Assay (I): Determination of Solubility
96-Well Plate Preparation
96-well plates containing target peptide in a solid form were prepared in one of two ways:
Method 1 (evaporation): Addition of 100 μl stock solution of said peptide at a concentration of 4-6 mg/ml to each well of a 96-well half area plate (150 μl well size). Subsequently the solvent was evaporated by applying a vacuum until the solvent was completely removed.
Method 2 (precipitation): Addition of a certain volume of a stock solution of said peptide containing to each well of a 96-well half area plate followed by the addition of a certain volume of concentrated phosphoric acid to obtain a pH of 4.6 followed by addition of a certain volume of ethanol resulting in a final ethanol concentration of 20% v/v. Subsequently the plate was stored at 4° C. for 1 h and then centrifuged at 4,000 rpm for 20 min. Finally the supernatant was removed. The concentration of the stock solution was chosen in a way that the final amount of peptide after supernatant removal was >0.4 mg per well.
In both cases the stock solution was prepared by adding de-ionized water to a certain amount of powder of said peptide followed by a stepwise addition of small amounts of a concentrated sodium hydroxide solution until said peptide was completely in solution.
To determine solubility of a target peptide at different pH and organic solvent concentrations, two different buffer systems were used in independent experiments to cover the whole range from pH 3.0 to pH 11.0. Buffer system 1 covers pH 3.0-7.5 and buffer system 2 covers pH 7.5-11.0. For each buffer system 96 different solvent compositions were premixed in the following way: • 1. A low pH buffer (adjusted to either pH 3.0 or pH 7.5) and a high pH buffer (adjusted to either pH 7.5 or pH 11.0) were mixed at 8 different ratios to obtain values between pH 3.0 and pH 7.5 or pH 7.5 and pH 11.0, respectively. The total volume after mixing was 300 μl. • 2. 12 different amounts of organic solvent were then added to these buffers to obtain organic solvent (e.g. ethanol) concentrations between 0 and 70% w/w. • 3. Water was then added to obtain a total weight of 1.0 g of solvent in each well.
After preparing the 96 different solvent systems, 100 μl of each system was transferred to the 96-well plate containing the solid form of the target peptide (prepared as described in the section “96-well plate preparation”). The plate was then stored at a given temperature (between 5° C. and 70° C.) for a given time on a rotating shaker set to 400 rpm. At regular time intervals the plate was centrifuged (4,000 rpm for 10 min) and a 10 μl sample was taken from each well. The samples were then analysed by UV absorption at 280 nm for peptide quantification. Peptide concentration results are given as UV absorption at 280 nm of the sample subtracted UV absorption at 280 nm of a well comprising 10 μl water.
The buffers used were as follows: • Buffer system 1 (for the pH range from pH 3.0-7.5)
• Buffer system 2 (for the pH ranae from pH 7.5-11.0)
Solubility of liraglutide was determined using Assay (I) described herein. Liraglutide was prepared using Method 1 (evaporation) or Method 2 (precipitation) as described in subsection “96-well plate preparation”.

[1] = pH 8.0, 70° C., Method 1 (evaporation)
[2] = pH 8.5, 70° C., Method 1 (evaporation)
[3] = pH 9.0, 70° C., Method 1 (evaporation)
[4] = pH 9.5, 70° C., Method 1 (evaporation)
[5] = pH 10.0, 70° C., Method 1 (evaporation)
[6] = pH 10.5, 70° C., Method 1 (evaporation)
[7] = pH 11.0, 70° C., Method 1 (evaporation)

CCCCCCCCCCCCCCCC(=O)N[C@@H](CCC(=O)NCCCC[C@H](NC(=O)[C@H](C)NC(=O)[C@H](C)NC(=O)[C@H](CCC(N)=O)NC(=O)CNC(=O)[C@H](CCC(=O)O)NC(=O)[C@H](CC(C)C)NC(=O)[C@H](Cc1ccc(O)cc1)NC(=O)[C@H](CO)NC(=O)[C@H](CO)NC(=O)[C@@H](NC(=O)[C@H](CC(=O)O)NC(=O)[C@H](CO)NC(=O)[C@@H](NC(=O)[C@H](Cc1ccccc1)NC(=O)[C@@H](NC(=O)CNC(=O)[C@H](CCC(=O)O)NC(=O)[C@H](C)NC(=O)[C@@H](N)Cc1cnc[nH]1)[C@@H](C)O)[C@@H](C)O)C(C)C)C(=O)N[C@@H](CCC(=O)O)C(=O)N[C@@H](Cc1ccccc1)C(=O)N[C@H](C(=O)N[C@@H](C)C(=O)N[C@@H](Cc1c[nH]c2ccccc12)C(=O)N[C@@H](CC(C)C)C(=O)N[C@H](C(=O)N[C@@H](CCCNC(=N)N)C(=O)NCC(=O)N[C@@H](CCCNC(=N)N)C(=O)NCC(=O)O)C(C)C)[C@@H](C)CC)C(=O)O [liraglutide, Arg34,Lys26-(N-epsilon-(gamma-L-glutamyl(N-alfa-hexadecanoyl)))-GLP-1(7-37)]
Peptide concentration after 24 h (pH 3.0, RT, Method 1): 0.8 mg/mL | Peptide concentration after 5 min (pH 3.6, 5° C., Method 1): 0.2 mg/mL | Peptide concentration after 180 min (pH 3.6, 5° C., Method 1): 0.4 mg/mL | Peptide concentration after 24 h (pH 3.6, 5° C., Method 1): 0.6 mg/mL | Peptide concentration after 5 min (pH 3.6, 70° C., Method 1): 0.4 mg/mL | Peptide concentration after 180 min (pH 3.6, 70° C., Method 1): 2.5 mg/mL | Peptide concentration after 5 min (pH 3.6, RT, Method 1): 0.2 mg/mL | Peptide concentration after 180 min (pH 3.6, RT, Method 1): 0.3 mg/mL | Peptide concentration after 24 h (pH 3.6, RT, Method 1): 0.4 mg/mL | Peptide concentration after 5 min (pH 4.3, 5° C., Method 1): 0.2 mg/mL | Peptide concentration after 180 min (pH 4.3, 5° C., Method 1): 0.3 mg/mL | Peptide concentration after 24 h (pH 4.3, 5° C., Method 1): 0.5 mg/mL | Peptide concentration after 5 min (pH 4.3, 70° C., Method 1): 0.5 mg/mL | Peptide concentration after 180 min (pH 4.3, 70° C., Method 1): 2.4 mg/mL | Peptide concentration after 5 min (pH 4.3, RT, Method 1): 0.2 mg/mL | Peptide concentration after 180 min (pH 4.3, RT, Method 1): 0.3 mg/mL | Peptide concentration after 24 h (pH 4.3, RT, Method 1): 0.3 mg/mL | Peptide concentration after 5 min (pH 4.9, 5° C., Method 1): 0.2 mg/mL | Peptide concentration after 180 min (pH 4.9, 5° C., Method 1): 0.3 mg/mL | Peptide concentration after 24 h (pH 4.9, 5° C., Method 1): 0.5 mg/mL | Peptide concentration after 5 min (pH 4.9, 70° C., Method 1): 0.5 mg/mL | Peptide concentration after 180 min (pH 4.9, 70° C., Method 1): 2.4 mg/mL | Peptide concentration after 5 min (pH 4.9, RT, Method 1): 0.2 mg/mL | Peptide concentration after 180 min (pH 4.9, RT, Method 1): 0.3 mg/mL | Peptide concentration after 24 h (pH 4.9, RT, Method 1): 0.3 mg/mL | Peptide concentration after 5 min (pH 5.6, 70° C., Method 1): 0.5 mg/mL | Peptide concentration after 180 min (pH 5.6, 70° C., Method 1): 2.6 mg/mL | Peptide concentration after 5 min (pH 5.6, RT, Method 1): 0.2 mg/mL | Peptide concentration after 180 min (pH 5.6, RT, Method 1): 0.2 mg/mL | Peptide concentration after 24 h (pH 5.6, RT, Method 1): 0.3 mg/mL | Peptide concentration after 5 min (pH 6.2, 70° C., Method 1): 0.5 mg/mL | Peptide concentration after 180 min (pH 6.2, 70° C., Method 1): 3.7 mg/mL | Peptide concentration after 5 min (pH 6.2, RT, Method 1): 0.2 mg/mL | Peptide concentration after 180 min (pH 6.2, RT, Method 1): 0.3 mg/mL | Peptide concentration after 24 h (pH 6.2, RT, Method 1): 0.5 mg/mL | Peptide concentration after 5 min (pH 6.9, 70° C., Method 1): 0.5 mg/mL | Peptide concentration after 180 min (pH 6.9, 70° C., Method 1): 3.6 mg/mL | Peptide concentration after 5 min (pH 6.9, RT, Method 1): 0.2 mg/mL | Peptide concentration after 180 min (pH 6.9, RT, Method 1): 0.2 mg/mL | Peptide concentration after 24 h (pH 6.9, RT, Method 1): 0.4 mg/mL | Peptide concentration after 5 min (pH 7.5, 70° C., Method 1): 0.7 mg/mL | Peptide concentration after 180 min (pH 7.5, 70° C., Method 1): 3.3 mg/mL | Peptide concentration after 5 min (pH 7.5, RT, Method 1): 0.3 mg/mL | Peptide concentration after 180 min (pH 7.5, RT, Method 1): 0.8 mg/mL | Peptide concentration after 24 h (pH 7.5, RT, Method 1): 1.9 mg/mL | Peptide concentration after 5 min [1]: 1.2 mg/mL | Peptide concentration after 180 min [1]: 3.8 mg/mL | Peptide concentration after 5 min (pH 8.0, RT, Method 1): 0.2 mg/mL | Peptide concentration after 180 min (pH 8.0, RT, Method 1): 0.9 mg/mL | Peptide concentration after 24 h (pH 8.0, RT, Method 1): 1.9 mg/mL | Peptide concentration after 5 min [2]: 0.8 mg/mL | Peptide concentration after 180 min [2]: 3.5 mg/mL | Peptide concentration after 5 min (pH 8.5, RT, Method 1): 0.2 mg/mL | Peptide concentration after 180 min (pH 8.5, RT, Method 1): 0.5 mg/mL | Peptide concentration after 24 h (pH 8.5, RT, Method 1): 1.6 mg/mL | Peptide concentration after 5 min [3]: 0.9 mg/mL | Peptide concentration after 180 min [3]: >4.0 mg/mL | Peptide concentration after 5 min (pH 9.0, RT, Method 1): 0.2 mg/mL | Peptide concentration after 180 min (pH 9.0, RT, Method 1): 1.0 mg/mL | Peptide concentration after 24 h (pH 9.0, RT, Method 1): 2.5 mg/mL | Peptide concentration after 5 min [4]: 1.0 mg/mL | Peptide concentration after 180 min [4]: 3.4 mg/mL | Peptide concentration after 5 min (pH 9.5, RT, Method 1): 0.2 mg/mL | Peptide concentration after 180 min (pH 9.5, RT, Method 1): 0.4 mg/mL | Peptide concentration after 24 h (pH 9.5, RT, Method 1): 1.6 mg/mL | Peptide concentration after 5 min [5]: 0.5 mg/mL | Peptide concentration after 180 min [5]: 2.9 mg/mL | Peptide concentration after 5 min (pH 10.0, RT, Method 1): 0.2 mg/mL | Peptide concentration after 180 min (pH 10.0, RT, Method 1): 0.3 mg/mL | Peptide concentration after 24 h (pH 10.0, RT, Method 1): 1.0 mg/mL | Peptide concentration after 5 min [6]: 0.4 mg/mL | Peptide concentration after 180 min [6]: 3.3 mg/mL | Peptide concentration after 5 min (pH 10.5, RT, Method 1): 0.2 mg/mL | Peptide concentration after 180 min (pH 10.5, RT, Method 1): 0.3 mg/mL | Peptide concentration after 24 h (pH 10.5, RT, Method 1): 1.1 mg/mL | Peptide concentration after 5 min [7]: 0.8 mg/mL | Peptide concentration after 180 min [7]: 3.4 mg/mL | Peptide concentration after 5 min (pH 11.0, RT, Method 1): 0.2 mg/mL | Peptide concentration after 180 min (pH 11.0, RT, Method 1): 0.8 mg/mL | Peptide concentration after 24 h (pH 11.0, RT, Method 1): 2.3 mg/mL | GLP-1 peptide concentration (pH 9.50, 180 min, after removal of outliers): 1.9 mg/mL | GLP-1 peptide concentration (pH 9.50, 24 h, after removal of outliers): >4.0 mg/mL | GLP-1 peptide concentration (pH 10.00, 5 min, after removal of outliers): 0.4 mg/mL | GLP-1 peptide concentration (pH 10.00, 5 min, before removal of outliers): 0.4 mg/mL | GLP-1 peptide concentration (pH 10.00, 180 min, after removal of outliers): 2.4 mg/mL | GLP-1 peptide concentration (pH 10.00, 180 min, before removal of outliers): 2.4 mg/mL | GLP-1 peptide concentration (pH 10.00, 24 h, after removal of outliers): 1.0 mg/mL | GLP-1 peptide concentration (pH 10.00, 24 h, before removal of outliers): 1.0 mg/mL | GLP-1 peptide concentration (pH 10.50, 5 min, after removal of outliers): 0.6 mg/mL | GLP-1 peptide concentration (pH 10.50, 5 min, before removal of outliers): 0.6 mg/mL | GLP-1 peptide concentration (pH 10.50, 180 min, after removal of outliers): 3.1 mg/mL | GLP-1 peptide concentration (pH 10.50, 180 min, before removal of outliers): 3.1 mg/mL | GLP-1 peptide concentration (pH 10.50, 24 h, after removal of outliers): 1.2 mg/mL | GLP-1 peptide concentration (pH 10.50, 24 h, before removal of outliers): 1.2 mg/mL | GLP-1 peptide concentration (pH 11.00, 5 min, after removal of outliers): 0.6 mg/mL | GLP-1 peptide concentration (pH 11.00, 5 min, before removal of outliers): 0.6 mg/mL | GLP-1 peptide concentration (pH 11.00, 180 min, after removal of outliers): 3.5 mg/mL | GLP-1 peptide concentration (pH 11.00, 180 min, before removal of outliers): 3.5 mg/mL | GLP-1 peptide concentration (pH 11.00, 24 h, after removal of outliers): 1.2 mg/mL | GLP-1 peptide concentration (pH 11.00, 24 h, before removal of outliers): 1.2 mg/mL
